Experimental data as given in patent publication US20250388583A1, “COMPOUNDS AND METHOD FOR PKMYT1 INHIBITION” (Engine Biosciences Pte. Ltd., priority 2022, published 2025).

Sequences of proteins named here, by UniProt entry; tags and fusion partners are left off.
UniProt P06239, whole entry: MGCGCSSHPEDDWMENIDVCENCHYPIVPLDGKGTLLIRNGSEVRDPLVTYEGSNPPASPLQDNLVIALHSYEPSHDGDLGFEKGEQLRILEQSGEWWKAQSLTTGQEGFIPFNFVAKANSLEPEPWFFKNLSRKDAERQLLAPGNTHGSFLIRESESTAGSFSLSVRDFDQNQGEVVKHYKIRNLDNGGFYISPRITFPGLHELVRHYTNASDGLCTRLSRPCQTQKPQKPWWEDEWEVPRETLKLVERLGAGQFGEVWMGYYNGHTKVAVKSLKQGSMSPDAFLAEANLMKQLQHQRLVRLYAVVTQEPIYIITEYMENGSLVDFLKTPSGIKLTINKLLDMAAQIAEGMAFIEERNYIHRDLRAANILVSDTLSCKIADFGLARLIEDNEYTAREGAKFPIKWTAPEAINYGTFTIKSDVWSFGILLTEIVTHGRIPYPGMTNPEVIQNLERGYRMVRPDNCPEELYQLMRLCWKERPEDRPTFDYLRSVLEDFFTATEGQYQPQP
UniProt Q99640, whole entry: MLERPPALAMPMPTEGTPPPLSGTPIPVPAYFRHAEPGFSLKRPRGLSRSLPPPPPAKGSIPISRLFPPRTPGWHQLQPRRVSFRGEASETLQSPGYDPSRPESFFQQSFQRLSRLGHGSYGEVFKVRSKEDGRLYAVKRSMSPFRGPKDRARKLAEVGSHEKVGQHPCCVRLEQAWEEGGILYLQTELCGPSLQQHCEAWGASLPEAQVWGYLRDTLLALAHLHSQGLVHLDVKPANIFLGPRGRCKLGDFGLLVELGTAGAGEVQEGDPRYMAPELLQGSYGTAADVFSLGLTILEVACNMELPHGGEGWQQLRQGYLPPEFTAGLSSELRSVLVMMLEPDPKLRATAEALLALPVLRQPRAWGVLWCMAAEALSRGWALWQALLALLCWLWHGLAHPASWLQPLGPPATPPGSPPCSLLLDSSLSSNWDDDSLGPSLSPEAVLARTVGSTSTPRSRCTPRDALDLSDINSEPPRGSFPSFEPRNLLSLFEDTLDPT

Legend:
LCK = LCK (Homo sapiens (Human), UniProt P06239); assay: In vitro assay: kinase binding to immobilized ligand, captured kinase measured by qPCR; conditions: read-out: LCK (IC50 = nM)
PKMYT1 = PKMYT1 (Homo sapiens (Human), UniProt Q99640); assay: as above; conditions: read-out: PKMYT1 (IC50 = nM)

Row | Compound | IC50 (LCK) [nM] | IC50 (PKMYT1) [nM]
1 | Cc1ccc(O)c(C)c1-n1c(N)c(C(N)=O)c2cnc(Cl)c(F)c21 | 50 to 100 | < 50
2 | Cc1ncc(O)c(C)c1-n1c(N)c(C(N)=O)c2cnc(C)c(F)c21 |  | 100 to 1000
3 | Cc1ccc(O)c(C)c1-n1c(N)c(C(N)=O)c2cnc(NCC(O)CC(F)(F)F)nc21 (centres unmarked) |  | < 50
4 | CCN(CC)c1ncc2c(C(N)=O)c(N)n(-c3c(C)ccc(O)c3C)c2c1F | < 50 | 50 to 100
5 | Cc1ncc(O)c(C)c1-n1c(N)c(C(N)=O)c2cncc(F)c21 |  | 100 to 1000

The next lines start with the values.

Row | IC50 (LCK) [nM] | IC50 (PKMYT1) [nM] | Compound
6 |  | < 50 | CCOc1ncc2c(C(N)=O)c(N)n(-c3c(C)ccc(O)c3C)c2n1
7 | < 50 | < 50 | Cc1ccc(O)c(C)c1-n1c(N)c(C(N)=O)c2cnc(/C=C\C3CC3)nc21
8 | 50 to 100 | < 50 | Cc1ccc(O)c(C)c1-n1c(N)c(C(N)=O)c2cnc(C3(C(F)(F)F)CC3)nc21
9 | 50 to 100 | < 50 | Cc1ccc(O)c(C)c1-n1c(N)c(C(N)=O)c2cnc(C(C)C)nc21
10 | < 50 | < 50 | CCC(C)c1ncc2c(C(N)=O)c(N)n(-c3c(C)ccc(O)c3C)c2c1F (centres unmarked)
11 | < 50 | < 50 | Cc1ccc(O)c(C)c1-n1c(N)c(C(N)=O)c2cnc(C(C)C)c(F)c21
12 | 50 to 100 | < 50 | CCC(C)c1ncc2c(C(N)=O)c(N)n(-c3c(C)ccc(O)c3C)c2n1 (centres unmarked)

The match of structure and compound is tentative.
